Experimental data taken from US20130217582, “Library Compositions and Methods for Acyclic Identification of Aptamers” (published 2013).
The exact form of at least one protein or probe is not confirmed.

Chains of the proteins cited; added tags and fusions are not shown. Chains listed by the source or under a name are the forms on record and can include a tag or linker.
Coagulation factor IXa (FIXa) (Homo sapiens), one chain, as listed by the source, chain 2 of 2: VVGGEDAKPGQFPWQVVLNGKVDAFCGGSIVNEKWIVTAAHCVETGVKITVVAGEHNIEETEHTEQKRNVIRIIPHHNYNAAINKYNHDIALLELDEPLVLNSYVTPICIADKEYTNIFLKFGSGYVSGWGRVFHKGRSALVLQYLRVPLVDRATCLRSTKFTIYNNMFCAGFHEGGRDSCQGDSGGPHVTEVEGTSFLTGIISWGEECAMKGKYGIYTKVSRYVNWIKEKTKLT
Coagulation factor IXa (FIXa) (Homo sapiens), one chain, as listed by the source, chain 1 of 2: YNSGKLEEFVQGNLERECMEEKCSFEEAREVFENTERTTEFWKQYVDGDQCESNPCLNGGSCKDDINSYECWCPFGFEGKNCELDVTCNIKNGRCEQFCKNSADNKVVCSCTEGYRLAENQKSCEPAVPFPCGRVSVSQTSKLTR

System: Coagulation factor IXa (FIXa) (Homo sapiens)
Test: SELEX
Settings: top-9 sequence counted >=1000; count in image; 20 mM Tris pH 7.4, 140 mM NaCl, 5 mM KCl, 1 mM CaCl2, 1 mM MgCl2, 25 C; purified native protein

Selection result, selected:
ACGACGCUCUUCCGAUCUAUGGGAAGGAAUGUCCGUCCCCACCUGCGGUUGGCUUGAAAGCUAACGGAGCUCGUAUGC [FIXa aptamer SEQ 104]

Same assay, conditions: top-9 sequence counted >=1000; count in image; purified native protein

Selection result, selected:
ACGACGCUCUUCCGAUCUAUGGACAGGAUGGUUUCGCUUUUAGAUGCGGUAAGUGCAAAGCUAACGGAGCUCGUAUGC [FIXa aptamer SEQ 143], ACGACGCUCUUCCGAUCUAUGGUCCAAGCAUAACCUGUGUCCGGUAGAUCAUGCCCGAAGCUAACGGAGCUCGUAUGC [FIXa aptamer SEQ 138], ACGACGCUCUUCCGAUCUAUGGUCGCCGGGUACCCAUUCCAGGGGGGGAUCGGUCGUAAGCUAACGGAGCUCGUAUGC [FIXa aptamer SEQ 140], ACGACGCUCUUCCGAUCUAUGGGAAUGUACUUGGUUGCUCCUUGCCCCCGCGUAGUCAAGCUAACGGAGCUCGUAUGC [FIXa aptamer SEQ 149], ACGACGCUCUUCCGAUCUAUGGACGAUUGUCCCCCAGAGUGUUGCACGCACGUCCGGAAGCUAACGGAGCUCGUAUGC [FIXa aptamer SEQ 110]
